In article doi:10.1101/2025.09.16.676456:
No constants are given. Whether binding was seen depends on the method and setting. Binding seen in cells or lysates may run through a third protein. Some binding calls cover weakened binding; strength is not graded here.

Sequences of proteins named here, by UniProt entry; tags and fusion partners are left off. A change or cut given only in a name is not applied to a line headed by its entry.
UniProt P48736: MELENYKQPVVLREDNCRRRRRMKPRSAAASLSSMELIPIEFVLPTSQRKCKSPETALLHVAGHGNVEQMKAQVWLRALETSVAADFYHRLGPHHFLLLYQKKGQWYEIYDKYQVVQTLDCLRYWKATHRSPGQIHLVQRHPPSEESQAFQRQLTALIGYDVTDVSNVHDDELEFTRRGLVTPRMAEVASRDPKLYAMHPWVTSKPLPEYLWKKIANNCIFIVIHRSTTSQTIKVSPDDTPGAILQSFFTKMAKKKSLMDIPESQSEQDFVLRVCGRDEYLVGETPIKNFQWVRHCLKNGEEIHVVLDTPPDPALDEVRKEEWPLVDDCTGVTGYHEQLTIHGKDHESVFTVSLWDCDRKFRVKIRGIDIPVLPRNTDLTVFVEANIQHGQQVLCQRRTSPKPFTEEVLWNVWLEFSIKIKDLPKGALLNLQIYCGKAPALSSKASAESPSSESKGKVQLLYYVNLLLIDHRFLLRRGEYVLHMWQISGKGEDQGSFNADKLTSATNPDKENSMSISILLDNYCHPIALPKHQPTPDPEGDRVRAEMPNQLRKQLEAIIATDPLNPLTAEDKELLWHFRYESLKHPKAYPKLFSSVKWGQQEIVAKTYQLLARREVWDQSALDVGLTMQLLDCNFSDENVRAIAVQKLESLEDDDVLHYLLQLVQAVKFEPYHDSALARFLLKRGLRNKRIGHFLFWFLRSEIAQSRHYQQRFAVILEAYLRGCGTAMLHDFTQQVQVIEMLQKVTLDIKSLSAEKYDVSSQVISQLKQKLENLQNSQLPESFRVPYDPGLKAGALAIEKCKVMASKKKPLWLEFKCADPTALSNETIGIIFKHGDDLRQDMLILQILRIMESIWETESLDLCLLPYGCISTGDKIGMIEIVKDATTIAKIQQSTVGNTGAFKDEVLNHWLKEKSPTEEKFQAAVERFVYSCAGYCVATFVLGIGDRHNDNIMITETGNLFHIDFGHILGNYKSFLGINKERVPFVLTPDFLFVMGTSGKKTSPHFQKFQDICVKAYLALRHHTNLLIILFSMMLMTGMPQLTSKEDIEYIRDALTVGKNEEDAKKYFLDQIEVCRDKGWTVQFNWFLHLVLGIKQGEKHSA

Target: p110γ, class IB PI3K catalytic subunit (human (endogenous in AGS, SNU-C2B, PANC-1)) (UniProt P48736)
Experiment: co-IP

binding: binds
B1: p101, regulatory subunit of p110γ (PI3Kγ) (protein, UniProt Q8WYR1 1-880)
chain: MQPGATTCTEDRIQHALERCLHGLSLSRRSTSWSAGLCLNCWSLQELVSRDPGHFLILLEQILQKTREVQEKGTYDLLTPLALLFYSTVLCTPHFPPDSDLLLKAASTYHRFLTWPVPYCSICQELLTFIDAELKAPGISYQRLVRAEQGLPIRSHRSSTVTVLLLNPVEVQAEFLAVANKLSTPGHSPHSAYTTLLLHAFQATFGAHCDVPGLHCRLQAKTLAELEDIFTETAEAQELASGIGDAAEARRWLRTKLQAVGEKAGFPGVLDTAKPGKLHTIPIPVARCYTYSWSQDSFDILQEILLKEQELLQPGILGDDEEEEEEEEEVEEDLETDGHCAERDSLLSTSSLASHDSTLSLASSQASGPALSRHLLTSFVSGLSDGMDSGYVEDSEESSSEWPWRRGSQERRGHRRPGQKFIRIYKLFKSTSQLVLRRDSRSLEGSSDTALPLRRAGSLCSPLDEPVSPPSRAQRSRSLPQPKLGTQLPSWLLAPASRPQRRRPFLSGDEDPKASTLRVVVFGSDRISGKVARAYSNLRRLENNRPLLTRFFKLQFFYVPVKRSHGTSPGACPPPRSQTPSPPTDSPRHASPGELGTTPWEESTNDISHYLGMLDPWYERNVLGLMHLPPEVLCQQSLKAEAQALEGSPTQLPILADMLLYYCRFAARPVLLQVYQTELTFITGEKTTEIFIHSLELGHSAATRAIKASGPGSKRLGIDGDREAVPLTLQIIYSKGAISGRSRWSNLEKVCTSVNLNKACRKQEELDSSMEALTLNLTEVVKRQNSKSKKGFNQISTSQIKVDKVQIIGSNSCPFAVCLDQDERKILQSVVRCEVSPCYKPEKSDLSSPPQTPPDLPAQAAPDLCSLLCLPIMTFSGALP
